± gives the standard deviation of the averaged measurements. The list shows a part of the results. The list holds hits alone, and they repeat only in part.
Assays:
Assay in all cases: PRISMA enrichment of interactor (LFQ) in peptide spot vs all other peptide spots (log2 fold change); higher = stronger / more specific binding of the interactor to the peptide
AMOT, Q4VCS5 = molecular target: AMOT, Q4VCS5
Experimental: (§1)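 PRISMA: 15-aa overlapping tiles (offset 8 aa) of 60 microproteins, plus SOS1/GLUT1 control peptides, were spot-synthesized on cellulose membranes in triplicate. Membranes were incubated with benzonase-treated HEK293T lysate, and bound proteins were identified by LC-MS/MS with LFQ. Enrichment is the log2 fold change of each protein in one spot versus all other spots. Only interactors passing the significance cutoff are listed.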

Amino acid sequences for entries named in this document (tags omitted).
DDX54, Q8TDD1, UniProt Q8TDD1, whole entry: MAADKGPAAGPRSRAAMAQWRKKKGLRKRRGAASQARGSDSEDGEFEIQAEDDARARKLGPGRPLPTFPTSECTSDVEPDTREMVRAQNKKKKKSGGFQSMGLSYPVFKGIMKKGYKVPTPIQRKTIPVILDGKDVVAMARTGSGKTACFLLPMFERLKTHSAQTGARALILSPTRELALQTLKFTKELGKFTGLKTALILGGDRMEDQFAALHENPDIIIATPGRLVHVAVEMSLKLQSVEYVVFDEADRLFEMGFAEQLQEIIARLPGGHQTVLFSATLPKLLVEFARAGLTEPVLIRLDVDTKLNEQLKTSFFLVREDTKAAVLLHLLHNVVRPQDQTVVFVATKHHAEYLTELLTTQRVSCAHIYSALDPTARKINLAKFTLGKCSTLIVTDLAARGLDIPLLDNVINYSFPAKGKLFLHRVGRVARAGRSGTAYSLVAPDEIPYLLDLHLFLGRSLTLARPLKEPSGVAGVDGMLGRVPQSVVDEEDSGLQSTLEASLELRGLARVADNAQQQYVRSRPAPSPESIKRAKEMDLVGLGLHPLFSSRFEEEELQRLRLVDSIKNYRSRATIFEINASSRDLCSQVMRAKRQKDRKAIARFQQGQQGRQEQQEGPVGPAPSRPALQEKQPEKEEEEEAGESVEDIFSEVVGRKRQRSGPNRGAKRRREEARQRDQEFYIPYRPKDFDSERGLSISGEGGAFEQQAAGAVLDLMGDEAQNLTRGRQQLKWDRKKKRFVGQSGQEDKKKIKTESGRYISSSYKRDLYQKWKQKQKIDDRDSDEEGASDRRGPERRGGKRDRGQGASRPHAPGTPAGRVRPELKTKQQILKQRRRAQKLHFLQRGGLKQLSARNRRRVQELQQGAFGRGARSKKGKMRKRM
DYNLRB1, Q9NP97, UniProt Q9NP97, whole entry: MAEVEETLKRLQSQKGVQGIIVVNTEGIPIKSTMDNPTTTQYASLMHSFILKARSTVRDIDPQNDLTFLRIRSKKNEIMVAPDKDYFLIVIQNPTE
PHAX, Q9H814, UniProt Q9H814, whole entry: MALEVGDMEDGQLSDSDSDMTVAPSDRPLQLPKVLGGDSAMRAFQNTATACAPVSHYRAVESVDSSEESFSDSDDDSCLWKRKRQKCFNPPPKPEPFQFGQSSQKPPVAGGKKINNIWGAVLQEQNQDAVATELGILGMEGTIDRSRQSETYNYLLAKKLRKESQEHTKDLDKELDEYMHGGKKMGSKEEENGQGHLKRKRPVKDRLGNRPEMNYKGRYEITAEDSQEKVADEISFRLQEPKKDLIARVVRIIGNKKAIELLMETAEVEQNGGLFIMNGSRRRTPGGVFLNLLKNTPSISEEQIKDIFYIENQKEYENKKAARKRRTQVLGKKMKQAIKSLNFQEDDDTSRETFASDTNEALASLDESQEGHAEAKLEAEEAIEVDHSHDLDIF
PSMC5, P62195, UniProt P62195, whole entry: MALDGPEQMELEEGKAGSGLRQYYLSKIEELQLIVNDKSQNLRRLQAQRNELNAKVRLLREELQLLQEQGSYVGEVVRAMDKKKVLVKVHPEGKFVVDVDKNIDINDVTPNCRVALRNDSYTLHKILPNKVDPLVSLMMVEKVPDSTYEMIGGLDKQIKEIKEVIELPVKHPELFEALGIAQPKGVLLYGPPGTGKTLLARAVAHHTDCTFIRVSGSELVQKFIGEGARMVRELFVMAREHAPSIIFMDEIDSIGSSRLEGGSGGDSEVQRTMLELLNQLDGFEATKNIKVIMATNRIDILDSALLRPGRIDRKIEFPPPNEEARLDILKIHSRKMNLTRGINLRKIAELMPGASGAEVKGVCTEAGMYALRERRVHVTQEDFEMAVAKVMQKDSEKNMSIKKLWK
TWF1, Q12792, UniProt Q12792, whole entry: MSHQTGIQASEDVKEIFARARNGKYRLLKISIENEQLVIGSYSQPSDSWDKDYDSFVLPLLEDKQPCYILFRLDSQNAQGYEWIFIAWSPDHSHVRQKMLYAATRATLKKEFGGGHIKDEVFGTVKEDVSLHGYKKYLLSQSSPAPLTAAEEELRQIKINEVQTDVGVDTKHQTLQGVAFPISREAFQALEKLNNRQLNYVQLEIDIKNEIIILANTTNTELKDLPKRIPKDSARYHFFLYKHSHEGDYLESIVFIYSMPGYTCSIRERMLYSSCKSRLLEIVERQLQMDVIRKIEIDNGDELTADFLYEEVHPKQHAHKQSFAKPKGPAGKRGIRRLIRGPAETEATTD
CKS2, P33552, UniProt P33552, whole entry: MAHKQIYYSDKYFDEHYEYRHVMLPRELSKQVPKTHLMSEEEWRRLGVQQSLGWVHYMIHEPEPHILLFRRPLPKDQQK
KHDRBS1, Q07666, UniProt Q07666, whole entry: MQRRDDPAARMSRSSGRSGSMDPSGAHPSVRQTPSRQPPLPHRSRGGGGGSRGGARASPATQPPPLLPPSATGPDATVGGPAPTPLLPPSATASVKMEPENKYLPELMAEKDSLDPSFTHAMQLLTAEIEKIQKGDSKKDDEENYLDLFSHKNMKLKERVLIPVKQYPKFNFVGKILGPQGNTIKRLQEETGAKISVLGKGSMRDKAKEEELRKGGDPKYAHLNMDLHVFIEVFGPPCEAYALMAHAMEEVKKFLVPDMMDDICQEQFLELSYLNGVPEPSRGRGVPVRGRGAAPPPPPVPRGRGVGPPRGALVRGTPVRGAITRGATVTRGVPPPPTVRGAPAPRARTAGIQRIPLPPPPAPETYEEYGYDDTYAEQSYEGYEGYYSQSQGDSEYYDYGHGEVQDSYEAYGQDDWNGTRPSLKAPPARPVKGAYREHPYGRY
AMFR, Q9UKV5, UniProt Q9UKV5, whole entry: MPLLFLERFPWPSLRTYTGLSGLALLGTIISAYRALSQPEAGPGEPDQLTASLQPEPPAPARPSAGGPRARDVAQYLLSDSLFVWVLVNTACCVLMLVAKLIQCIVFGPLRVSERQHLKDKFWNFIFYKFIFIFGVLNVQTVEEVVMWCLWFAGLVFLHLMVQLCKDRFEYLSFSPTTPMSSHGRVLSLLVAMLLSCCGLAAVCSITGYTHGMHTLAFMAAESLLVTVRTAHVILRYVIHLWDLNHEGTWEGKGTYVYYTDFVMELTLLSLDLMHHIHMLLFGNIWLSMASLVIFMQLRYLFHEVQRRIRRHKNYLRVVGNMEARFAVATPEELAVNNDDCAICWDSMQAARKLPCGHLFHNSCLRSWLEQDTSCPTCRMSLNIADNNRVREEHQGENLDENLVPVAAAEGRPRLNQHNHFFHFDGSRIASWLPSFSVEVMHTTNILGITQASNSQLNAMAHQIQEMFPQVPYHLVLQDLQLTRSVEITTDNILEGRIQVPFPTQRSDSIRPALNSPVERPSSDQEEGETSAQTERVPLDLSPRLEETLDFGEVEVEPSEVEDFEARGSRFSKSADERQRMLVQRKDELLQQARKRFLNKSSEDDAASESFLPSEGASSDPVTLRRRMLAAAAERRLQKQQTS
ASF1B, Q9NVP2, UniProt Q9NVP2, whole entry: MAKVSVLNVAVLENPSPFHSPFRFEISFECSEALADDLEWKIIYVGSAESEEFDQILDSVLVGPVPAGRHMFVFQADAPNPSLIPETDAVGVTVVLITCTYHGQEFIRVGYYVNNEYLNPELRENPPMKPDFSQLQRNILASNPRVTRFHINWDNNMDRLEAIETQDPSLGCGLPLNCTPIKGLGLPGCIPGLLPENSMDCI
EXOSC4, Q9NPD3, UniProt Q9NPD3, whole entry: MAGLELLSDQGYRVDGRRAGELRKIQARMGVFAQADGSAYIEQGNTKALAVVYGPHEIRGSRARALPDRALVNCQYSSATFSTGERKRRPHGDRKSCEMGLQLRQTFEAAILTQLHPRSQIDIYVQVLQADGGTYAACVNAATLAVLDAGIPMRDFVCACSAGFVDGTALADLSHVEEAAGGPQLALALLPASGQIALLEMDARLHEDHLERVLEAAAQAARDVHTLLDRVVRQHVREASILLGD
HSP90AB2P, Q58FF8, UniProt Q58FF8, whole entry: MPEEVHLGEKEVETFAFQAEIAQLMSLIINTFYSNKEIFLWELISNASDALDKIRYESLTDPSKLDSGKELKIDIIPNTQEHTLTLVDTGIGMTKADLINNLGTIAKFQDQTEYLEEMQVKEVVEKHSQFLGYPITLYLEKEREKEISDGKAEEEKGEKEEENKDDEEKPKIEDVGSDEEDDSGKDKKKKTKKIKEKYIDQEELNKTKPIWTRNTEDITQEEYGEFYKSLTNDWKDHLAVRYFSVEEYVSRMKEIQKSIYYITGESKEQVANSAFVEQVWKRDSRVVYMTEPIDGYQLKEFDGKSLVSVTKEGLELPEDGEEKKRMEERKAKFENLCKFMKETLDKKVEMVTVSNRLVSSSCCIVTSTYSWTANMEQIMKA
INTS11, Q5TA45, UniProt Q5TA45, whole entry: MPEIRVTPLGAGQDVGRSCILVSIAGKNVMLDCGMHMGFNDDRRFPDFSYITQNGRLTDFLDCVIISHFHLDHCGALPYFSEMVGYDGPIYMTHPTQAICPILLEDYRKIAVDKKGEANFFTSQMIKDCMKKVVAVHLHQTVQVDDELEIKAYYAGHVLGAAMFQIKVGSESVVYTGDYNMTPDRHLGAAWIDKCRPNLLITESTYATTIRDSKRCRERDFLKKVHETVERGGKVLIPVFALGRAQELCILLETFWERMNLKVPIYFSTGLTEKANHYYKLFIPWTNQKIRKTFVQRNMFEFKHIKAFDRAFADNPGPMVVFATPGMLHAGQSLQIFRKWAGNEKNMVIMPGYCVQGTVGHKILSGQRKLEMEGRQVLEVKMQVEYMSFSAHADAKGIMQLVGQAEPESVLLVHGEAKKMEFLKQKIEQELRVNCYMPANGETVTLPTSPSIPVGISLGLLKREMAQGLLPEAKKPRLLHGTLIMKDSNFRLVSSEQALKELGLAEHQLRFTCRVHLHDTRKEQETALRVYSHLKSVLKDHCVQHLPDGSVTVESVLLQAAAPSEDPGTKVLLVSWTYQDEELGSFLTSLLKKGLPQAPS
NUP153, P49790, UniProt P49790, whole entry: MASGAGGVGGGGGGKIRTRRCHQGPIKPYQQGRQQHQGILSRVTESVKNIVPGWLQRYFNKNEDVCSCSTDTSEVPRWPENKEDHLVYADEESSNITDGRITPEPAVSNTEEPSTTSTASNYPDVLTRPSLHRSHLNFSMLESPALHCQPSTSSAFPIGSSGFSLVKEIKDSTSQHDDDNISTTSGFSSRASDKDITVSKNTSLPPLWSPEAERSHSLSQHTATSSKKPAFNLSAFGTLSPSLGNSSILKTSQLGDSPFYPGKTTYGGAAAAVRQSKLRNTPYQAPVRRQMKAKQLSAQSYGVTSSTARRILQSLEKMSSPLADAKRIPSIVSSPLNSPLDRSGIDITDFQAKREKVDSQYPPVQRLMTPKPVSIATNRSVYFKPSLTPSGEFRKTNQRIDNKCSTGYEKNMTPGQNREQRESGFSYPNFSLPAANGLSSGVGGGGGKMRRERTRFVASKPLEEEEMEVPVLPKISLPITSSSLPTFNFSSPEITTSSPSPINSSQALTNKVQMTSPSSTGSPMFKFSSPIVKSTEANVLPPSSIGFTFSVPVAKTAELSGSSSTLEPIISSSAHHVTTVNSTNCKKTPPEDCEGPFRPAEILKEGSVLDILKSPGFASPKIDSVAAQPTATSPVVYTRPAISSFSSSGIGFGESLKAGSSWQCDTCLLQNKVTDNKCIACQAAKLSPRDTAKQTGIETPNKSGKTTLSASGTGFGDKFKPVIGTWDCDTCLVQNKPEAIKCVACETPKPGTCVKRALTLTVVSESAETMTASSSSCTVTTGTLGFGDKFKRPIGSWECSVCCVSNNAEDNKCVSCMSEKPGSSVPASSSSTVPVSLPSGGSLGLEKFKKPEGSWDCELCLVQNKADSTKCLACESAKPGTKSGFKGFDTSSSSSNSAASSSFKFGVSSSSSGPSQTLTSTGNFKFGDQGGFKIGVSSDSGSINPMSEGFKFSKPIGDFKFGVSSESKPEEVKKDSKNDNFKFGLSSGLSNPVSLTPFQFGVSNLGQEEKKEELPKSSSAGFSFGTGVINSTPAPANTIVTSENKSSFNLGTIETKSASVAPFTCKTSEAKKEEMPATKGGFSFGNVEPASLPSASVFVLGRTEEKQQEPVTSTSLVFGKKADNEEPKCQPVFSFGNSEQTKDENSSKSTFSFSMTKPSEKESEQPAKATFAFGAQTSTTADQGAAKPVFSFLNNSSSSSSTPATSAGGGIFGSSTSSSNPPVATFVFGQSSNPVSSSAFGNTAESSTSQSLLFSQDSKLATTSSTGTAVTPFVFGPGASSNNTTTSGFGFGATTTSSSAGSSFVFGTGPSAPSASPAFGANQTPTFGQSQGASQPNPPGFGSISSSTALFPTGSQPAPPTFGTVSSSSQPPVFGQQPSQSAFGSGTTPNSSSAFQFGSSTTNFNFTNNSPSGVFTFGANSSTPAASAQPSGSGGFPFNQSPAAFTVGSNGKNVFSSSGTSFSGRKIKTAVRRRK

APOL1, O14791 = molecular target: APOL1, O14791
Experimental: as §1

CCDC47, Q96A33 = molecular target: CCDC47, Q96A33
Experimental: as §1

CLTA, P09496 = molecular target: CLTA, P09496
Experimental: as §1

DDX54, Q8TDD1 = molecular target: DDX54, Q8TDD1
Experimental: as §1

DYNLRB1, Q9NP97 = molecular target: DYNLRB1, Q9NP97
Experimental: as §1

FLNA, P21333 = molecular target: FLNA, P21333
Experimental: as §1

GATAD2A, Q86YP4 = molecular target: GATAD2A, Q86YP4
Experimental: as §1

GTF2E2, P29084 = molecular target: GTF2E2, P29084
Experimental: as §1

HADHA, P40939 = molecular target: HADHA, P40939
Experimental: as §1

HUWE1, Q7Z6Z7 = molecular target: HUWE1, Q7Z6Z7
Experimental: as §1

KIF20A, O95235 = molecular target: KIF20A, O95235
Experimental: as §1

KNOP1, Q1ED39 = molecular target: KNOP1, Q1ED39
Experimental: as §1

KTN1, Q86UP2 = molecular target: KTN1, Q86UP2
Experimental: as §1

OSGEP, Q9NPF4 = molecular target: OSGEP, Q9NPF4
Experimental: as §1

OXSR1, O95747 = molecular target: OXSR1, O95747
Experimental: as §1

PHAX, Q9H814 = molecular target: PHAX, Q9H814
Experimental: as §1

PSMC5, P62195 = molecular target: PSMC5, P62195
Experimental: as §1

PUM1, Q14671 = molecular target: PUM1, Q14671
Experimental: as §1

RPUSD3, Q6P087 = molecular target: RPUSD3, Q6P087
Experimental: as §1

TP53, P04637 = molecular target: TP53, P04637
Experimental: as §1

TRABD, Q9H4I3 = molecular target: TRABD, Q9H4I3
Experimental: as §1

TWF1, Q12792 = molecular target: TWF1, Q12792
Experimental: as §1

ALYREF, Q86V81 = molecular target: ALYREF, Q86V81
Experimental: as §1

ATG4B, Q9Y4P1 = molecular target: ATG4B, Q9Y4P1
Experimental: as §1

C19orf53, Q9UNZ5 = molecular target: C19orf53, Q9UNZ5
Experimental: as §1

CHTOP, Q9Y3Y2 = molecular target: CHTOP, Q9Y3Y2
Experimental: as §1

CKS2, P33552 = molecular target: CKS2, P33552
Experimental: as §1

CSRP2, Q16527 = molecular target: CSRP2, Q16527
Experimental: as §1

DDX5, P17844 = molecular target: DDX5, P17844
Experimental: as §1

EWSR1, Q01844 = molecular target: EWSR1, Q01844
Experimental: as §1

FHL1, Q13642 = molecular target: FHL1, Q13642
Experimental: as §1

G3BP2, Q9UN86 = molecular target: G3BP2, Q9UN86
Experimental: as §1

GABARAPL2, P60520 = molecular target: GABARAPL2, P60520
Experimental: as §1

GOLIM4, O00461 = molecular target: GOLIM4, O00461
Experimental: as §1

HNRNPA0, Q13151 = molecular target: HNRNPA0, Q13151
Experimental: as §1

HNRNPA1, P09651 = molecular target: HNRNPA1, P09651
Experimental: as §1

HNRNPA2B1, P22626 = molecular target: HNRNPA2B1, P22626
Experimental: as §1

KHDRBS1, Q07666 = molecular target: KHDRBS1, Q07666
Experimental: as §1

LSM12, Q3MHD2 = molecular target: LSM12, Q3MHD2
Experimental: as §1

MRPL27, Q9P0M9 = molecular target: MRPL27, Q9P0M9
Experimental: as §1

PUS1, Q9Y606 = molecular target: PUS1, Q9Y606
Experimental: as §1

AMFR, Q9UKV5 = molecular target: AMFR, Q9UKV5
Experimental: as §1

AP3S1, Q92572 = molecular target: AP3S1, Q92572
Experimental: as §1

ASF1B, Q9NVP2 = molecular target: ASF1B, Q9NVP2
Experimental: as §1

CALML5, Q9NZT1 = molecular target: CALML5, Q9NZT1
Experimental: as §1

CCAR1, Q8IX12 = molecular target: CCAR1, Q8IX12
Experimental: as §1

CCDC137, Q6PK04 = molecular target: CCDC137, Q6PK04
Experimental: as §1

DDX52, Q9Y2R4 = molecular target: DDX52, Q9Y2R4
Experimental: as §1

DECR2, Q9NUI1 = molecular target: DECR2, Q9NUI1
Experimental: as §1

EXOSC4, Q9NPD3 = molecular target: EXOSC4, Q9NPD3
Experimental: as §1

GNL3L, Q9NVN8 = molecular target: GNL3L, Q9NVN8
Experimental: as §1

HSP90AB2P, Q58FF8 = molecular target: HSP90AB2P, Q58FF8
Experimental: as §1

INTS11, Q5TA45 = molecular target: INTS11, Q5TA45
Experimental: as §1

MRPS15, P82914 = molecular target: MRPS15, P82914
Experimental: as §1

MYCBP2, O75592 = molecular target: MYCBP2, O75592
Experimental: as §1

MYO1B, O43795 = molecular target: MYO1B, O43795
Experimental: as §1

NCLN, Q969V3 = molecular target: NCLN, Q969V3
Experimental: as §1

NOP53, Q9NZM5 = molecular target: NOP53, Q9NZM5
Experimental: as §1

NTPCR, Q9BSD7 = molecular target: NTPCR, Q9BSD7
Experimental: as §1

NUP153, P49790 = molecular target: NUP153, P49790
Experimental: as §1

PDF, Q9HBH1 = molecular target: PDF, Q9HBH1
Experimental: as §1

RSF1, Q96T23 = molecular target: RSF1, Q96T23
Experimental: as §1

SURF6, O75683 = molecular target: SURF6, O75683
Experimental: as §1

TIMM8A, O60220 = molecular target: TIMM8A, O60220
Experimental: as §1

TMEM41B, Q5BJD5 = molecular target: TMEM41B, Q5BJD5
Experimental: as §1

UNC45A, Q9H3U1 = molecular target: UNC45A, Q9H3U1
Experimental: as §1

UTP20, O75691 = molecular target: UTP20, O75691
Experimental: as §1

ZC3H11A, O75152 = molecular target: ZC3H11A, O75152
Experimental: as §1

AMMECR1, Q9Y4X0 = molecular target: AMMECR1, Q9Y4X0
Experimental: as §1

GPI, P06744 = molecular target: GPI, P06744
Experimental: as §1

NUP155, O75694 = molecular target: NUP155, O75694
Experimental: as §1

PDCL3, Q9H2J4 = molecular target: PDCL3, Q9H2J4
Experimental: as §1

TRMT112, Q9UI30 = molecular target: TRMT112, Q9UI30
Experimental: as §1

Binder: TSTSAPNTLRRTALS [THAP7]
- PRISMA enrichment of interactor (log2) (AMOT, Q4VCS5): 5.8
- PRISMA enrichment of interactor (log2) (APOL1, O14791): 4.47
- PRISMA enrichment of interactor (log2) (CCDC47, Q96A33): 6.93
- PRISMA enrichment of interactor (log2) (CLTA, P09496): 6.95
- PRISMA enrichment of interactor (log2) (DDX54, Q8TDD1): 6.93
- PRISMA enrichment of interactor (log2) (DYNLRB1, Q9NP97): 4.8
- PRISMA enrichment of interactor (log2) (FLNA, P21333): 4.62
- PRISMA enrichment of interactor (log2) (GATAD2A, Q86YP4): 5.01
- PRISMA enrichment of interactor (log2) (GTF2E2, P29084): 4.71
- PRISMA enrichment of interactor (log2) (HADHA, P40939): 4.89
- PRISMA enrichment of interactor (log2) (HUWE1, Q7Z6Z7): 5.93
- PRISMA enrichment of interactor (log2) (KIF20A, O95235): 6.89
- PRISMA enrichment of interactor (log2) (KNOP1, Q1ED39): 6.74
- PRISMA enrichment of interactor (log2) (KTN1, Q86UP2): 4.67
- PRISMA enrichment of interactor (log2) (OSGEP, Q9NPF4): 6.41
- PRISMA enrichment of interactor (log2) (OXSR1, O95747): 6.52
- PRISMA enrichment of interactor (log2) (PHAX, Q9H814): 5.3
- PRISMA enrichment of interactor (log2) (PSMC5, P62195): 5.01
- PRISMA enrichment of interactor (log2) (PUM1, Q14671): 5.58
- PRISMA enrichment of interactor (log2) (RPUSD3, Q6P087): 5.35
- PRISMA enrichment of interactor (log2) (TP53, P04637): 4.02
- PRISMA enrichment of interactor (log2) (TRABD, Q9H4I3): 4.62
- PRISMA enrichment of interactor (log2) (TWF1, Q12792): 4.05

Binder: AAWSFVQVFSEPDGF [PVT1]
- PRISMA enrichment of interactor (log2) (ALYREF, Q86V81): 5.41 ± 0.31
- PRISMA enrichment of interactor (log2) (ATG4B, Q9Y4P1): 6.93
- PRISMA enrichment of interactor (log2) (C19orf53, Q9UNZ5): 7.09
- PRISMA enrichment of interactor (log2) (CHTOP, Q9Y3Y2): 6.2
- PRISMA enrichment of interactor (log2) (CKS2, P33552): 5.2
- PRISMA enrichment of interactor (log2) (CSRP2, Q16527): 6.07
- PRISMA enrichment of interactor (log2) (DDX5, P17844): 6.4
- PRISMA enrichment of interactor (log2) (EWSR1, Q01844): 5.97
- PRISMA enrichment of interactor (log2) (FHL1, Q13642): 4.23
- PRISMA enrichment of interactor (log2) (G3BP2, Q9UN86): 6.05
- PRISMA enrichment of interactor (log2) (GABARAPL2, P60520): 5.86
- PRISMA enrichment of interactor (log2) (GOLIM4, O00461): 4.77
- PRISMA enrichment of interactor (log2) (HNRNPA0, Q13151): 5.75
- PRISMA enrichment of interactor (log2) (HNRNPA1, P09651): 5.96
- PRISMA enrichment of interactor (log2) (HNRNPA2B1, P22626): 4.7
- PRISMA enrichment of interactor (log2) (KHDRBS1, Q07666): 6.37
- PRISMA enrichment of interactor (log2) (LSM12, Q3MHD2): 5.14
- PRISMA enrichment of interactor (log2) (MRPL27, Q9P0M9): 8.46
- PRISMA enrichment of interactor (log2) (PUS1, Q9Y606): 5.03

Binder: NLNLSSPGIQLQQLR [EBAG9]
- PRISMA enrichment of interactor (log2) (AMFR, Q9UKV5): 8.67
- PRISMA enrichment of interactor (log2) (AP3S1, Q92572): 6.48
- PRISMA enrichment of interactor (log2) (ASF1B, Q9NVP2): 3.88
- PRISMA enrichment of interactor (log2) (CALML5, Q9NZT1): 3.93
- PRISMA enrichment of interactor (log2) (CCAR1, Q8IX12): 7.82
- PRISMA enrichment of interactor (log2) (CCDC137, Q6PK04): 6.09
- PRISMA enrichment of interactor (log2) (DDX52, Q9Y2R4): 5.49
- PRISMA enrichment of interactor (log2) (DECR2, Q9NUI1): 5.02
- PRISMA enrichment of interactor (log2) (EXOSC4, Q9NPD3): 4.05
- PRISMA enrichment of interactor (log2) (GNL3L, Q9NVN8): 6.09
- PRISMA enrichment of interactor (log2) (HSP90AB2P, Q58FF8): 4.21
- PRISMA enrichment of interactor (log2) (INTS11, Q5TA45): 4.84
- PRISMA enrichment of interactor (log2) (KNOP1, Q1ED39): 5.43
- PRISMA enrichment of interactor (log2) (MRPS15, P82914): 7.34
- PRISMA enrichment of interactor (log2) (MYCBP2, O75592): 4.15
- PRISMA enrichment of interactor (log2) (MYO1B, O43795): 4.8
- PRISMA enrichment of interactor (log2) (NCLN, Q969V3): 5.89
- PRISMA enrichment of interactor (log2) (NOP53, Q9NZM5): 5.88
- PRISMA enrichment of interactor (log2) (NTPCR, Q9BSD7): 6.61
- PRISMA enrichment of interactor (log2) (NUP153, P49790): 5.51
- PRISMA enrichment of interactor (log2) (PDF, Q9HBH1): 4.56
- PRISMA enrichment of interactor (log2) (RSF1, Q96T23): 4.64
- PRISMA enrichment of interactor (log2) (SURF6, O75683): 4.67
- PRISMA enrichment of interactor (log2) (TIMM8A, O60220): 4.16
- PRISMA enrichment of interactor (log2) (TMEM41B, Q5BJD5): 5.64
- PRISMA enrichment of interactor (log2) (UNC45A, Q9H3U1): 4.38
- PRISMA enrichment of interactor (log2) (UTP20, O75691): 5.14
- PRISMA enrichment of interactor (log2) (ZC3H11A, O75152): 4.17

Binder: RSGEQKKGVFIRFLI [RP11-644F5.11]
- PRISMA enrichment of interactor (log2) (AMMECR1, Q9Y4X0): 5.07
- PRISMA enrichment of interactor (log2) (GPI, P06744): 5.14
- PRISMA enrichment of interactor (log2) (NUP155, O75694): 5.12
- PRISMA enrichment of interactor (log2) (PDCL3, Q9H2J4): 8.83
- PRISMA enrichment of interactor (log2) (TRMT112, Q9UI30): 6.37

— the supplement of paper PMC10032668
